# According to PubChem BioAssay AID445 (National Center for Advancing Translational Sciences (NCATS), 2006):
# The other results are listed elsewhere or left out. Further columns of the screen follow, without active or inactive calls. Compounds called inactive in the main read-out are mostly missing here. Words in brackets tell the shape of the fitted curve; partial curves, single points and poor fits give uncertain potencies.
# Assay: IkB Signaling
# Conditions: ABC-DLBCL IkBa-CBG/CBR dual luciferase ratio (green luciferase fused to IkBa over red control in OCI-Ly3 lymphoma cells), 4 h
# Procedure, shortened: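 Luminescence ratio of IκBα-fused green versus native red beetle luciferase in OCI-Ly3 cells, 4 h post-doxycycline with compound; red signal alone, scaled from basal (0%) to zero light (-100%), flagged nonspecific or cytotoxic effects.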
# [1] = measured here: control luc red channel unless noted
# [2] = measured here: IkB-luc green channel
# [3] = measured here: control luc red channel
smiles,measurement,setting,value
COc1cc(NC(=O)C2CCN(c3nnc(C)c4c(C)n(-c5ccccc5)nc34)CC2)cc(OC)c1,AC50,[1],"25.1 µM [falling, partial curve]"
CCOc1ccc(S(=O)(=O)Nc2cccc(Cl)c2)cc1,AC50,[1],"12.6 µM [falling, partial curve]"
Cc1ccc2c(c1)c(=O)c1ccccc1n2CCCC(=O)Nc1ccc(Cl)cc1C,AC50,[1],"7.94 µM [falling, partial curve]"
Oc1ccc2ccccc2c1C=NCc1cn2ccsc2n1,AC50,[1],"31.6 µM [rising, partial curve] [measured here: IkB-luc green channel]"
C[C@@H]1O[C@H](O[C@@H]2[C@H](C)O[C@H](O[C@@H]3[C@H](C)O[C@H](O[C@H]4CC[C@]5(C)[C@@H](CC[C@@H]6[C@H]5C[C@@H](O)[C@]5(C)[C@@H](C7=CC(=O)OC7)CC[C@]65O)C4)C[C@@H]3O)C[C@@H]2O)C[C@H](O)[C@@H]1O,AC50,[1],"0.794 µM [falling, full curve]"
Cc1oc(-c2ccccc2F)nc1CSCC(=O)NCc1ccc2c(c1)OCO2,AC50,[1],"15.8 µM [falling, partial curve]"
CCOC(=O)c1cc2c(N)c(C(=O)c3cc(C#N)c(SC)nc3C)sc2nc1C,AC50,[1],"15.8 µM [falling, partial curve]"
COc1ccc(OCC(=O)Nc2ccc(Cl)c(-c3nc4ncccc4o3)c2)cc1,AC50,[1],"25.1 µM [falling, partial curve]"
O=C(NCc1nc2ccccc2n1Cc1ccccc1Cl)c1ccccc1,AC50,[1],"31.6 µM [falling, partial curve]"
COCCn1c(SCC(=O)c2c(C)[nH]c3ccccc23)nc2cc(C(=O)NC(C)C)ccc2c1=O,AC50,[1],"12.6 µM [falling, partial curve]"
CCOc1ccc(CCNC(=O)Cn2ccc3cc(S(=O)(=O)N4CCCCC4)ccc32)cc1,AC50,[1],"12.6 µM [falling, partial curve]"
COc1ccccc1N1CCN(Cc2cc(Br)c(O)c3ncccc23)CC1,AC50,[1],"3.16 µM [rising, partial curve] [measured here: IkB-luc green channel]"
COc1cccc(CNC(=O)c2ccc3c(c2)N(Cc2ccc(F)cc2Cl)C(=O)c2ccccc2S3)c1,AC50,[1],"6.31 µM [falling, partial curve]"
Cc1ccc(Cl)cc1NC(=O)Nc1cn(CC(C)C)c(=O)c2ccccc12,AC50,[1],"39.8 µM [falling, single point]"
Cc1ccccc1CN1C(=O)c2ccccc2Sc2ccc(C(=O)NCc3ccccc3)cc21,AC50,[1],"12.6 µM [falling, partial curve]"
CC1CCN(S(=O)(=O)c2ccc3c(c2)N(CC(=O)NCc2ccccc2)C(=O)CO3)CC1,AC50,[1],"31.6 µM [falling, single point]"
CCOC(=O)N1CCN(C(=O)CSCC(=O)Nc2nc(-c3cccs3)cs2)CC1,AC50,[1],"12.6 µM [falling, partial curve]"
O=C(CSc1nc(Nc2ccccc2)nc(N2CCOCC2)n1)Nc1ccc2c(c1)OCCO2,AC50,[1],"10 µM [falling, partial curve]"
COc1ccc(OC)c(NC2=C(c3ccccc3)C(=O)c3ccccc32)c1,AC50,[2],"6.31 µM [rising, single point]"
same,AC50,[3],"5.01 µM [falling, partial curve]"
Oc1ccccc1Nc1nc(-c2ccccc2)c2cc(Cl)ccc2n1,AC50,[1],"6.31 µM [falling, full curve]"
Cn1cc(CC(=O)Nc2cccc(C#N)c2)c2ccccc21,AC50,[1],"10 µM [falling, partial curve]"
CCN(CC)c1nc(-c2ccc(C(C)(C)C)cc2)nc2ccccc12,AC50,[1],"15.8 µM [falling, single point]"
O=C1CS(=O)(=O)C2(C(=O)N(Cc3cccc(F)c3)c3ccccc32)N1c1ccccc1 (stereo not drawn),AC50,[1],"10 µM [falling, partial curve]"
CCc1ccccc1N(C)C(=O)c1cn(CC(C)C)c(=O)c2cc(OC)c(OC)cc12,AC50,[1],"3.98 µM [falling, full curve]"
COc1ccc(-c2nn(CC(=O)NC3CCCC3)c3c2cnc2ccc(F)cc23)cc1,AC50,[1],"0.631 µM [rising, full curve]"
Clc1ccc(Cn2cc(/C=N/n3cnnc3)c3ccccc32)cc1,AC50,[1],"25.1 µM [falling, partial curve]"
Cc1c(NC(=O)c2cc([N+](=O)[O-])ccc2N2CCOCC2)cccc1-c1nc2ccccc2o1,AC50,[1],"7.94 µM [falling, partial curve]"
Cc1ccc(NC(=O)c2nc(S(C)(=O)=O)ncc2N(Cc2ccccc2)Cc2ccco2)c(C)c1,AC50,[1],"39.8 µM [falling, single point]"
Cc1nn(-c2ccc(F)cc2)c(-n2cccc2)c1C(=O)N1CCN(c2ccc(F)cc2)CC1,AC50,[1],"25.1 µM [falling, single point]"
Cc1ccc(CNC(=O)Cn2c3ncccc3c(=O)n2-c2ccccc2)cc1,AC50,[1],"20 µM [falling, partial curve]"
O=C(CSc1ccc(-c2ccccn2)nn1)Nc1ccc(F)c(F)c1,AC50,[1],"15.8 µM [falling, single point]"
CCOc1ccc(CCNC(=O)CCc2c(C)nc3c(c(C)nn3-c3ccccc3)c2C)cc1OCC,AC50,[1],"12.6 µM [falling, partial curve]"
Cc1[nH]c2ccc(-c3nnc(SCC(=O)NCc4ccco4)n3Cc3ccccc3)cc2c1C,AC50,[1],"10 µM [falling, partial curve]"
O=C(Nc1ccc(Br)c(Cl)c1)c1ccco1,AC50,[1],"25.1 µM [falling, partial curve]"
Cc1ccc(C2CC(=O)N(Cc3ccccc3F)c3c2c(C)nn3-c2nc(C)cc(C)n2)cc1 (stereo not drawn),AC50,[1],"25.1 µM [falling, partial curve, poor fit]"
CCc1cccc2c1NC(=O)[C@]21[C@@H]2C(=O)N(Cc3ccccc3)C(=O)[C@@H]2[C@@H]2CCCN21,AC50,[1],"15.8 µM [falling, partial curve]"
CCOc1ccc(CCNC(=O)c2ccc3c(c2)c(C)c(C)n3C)cc1,AC50,[1],"25.1 µM [falling, single point]"
COC(=O)c1ccc(NC(=O)CSc2nc(=O)n(Cc3ccco3)c3c2CCC3)cc1,AC50,[1],"39.8 µM [falling, single point]"
COc1cc(C(=O)N(Cc2ccc(C(C)C)cc2)C2CCS(=O)(=O)C2)cc(OC)c1OC (stereo not drawn),AC50,[1],"0.794 µM [rising, full curve, poor fit]"
O=C1c2[nH]nc(-c3ccccc3O)c2C(c2ccccc2F)N1Cc1ccco1 (stereo not drawn),AC50,[1],"25.1 µM [falling, partial curve]"
Cc1ccccc1C(=O)N1CCC(c2nc3ccccc3s2)CC1,AC50,[1],"15.8 µM [falling, partial curve]"
COc1ccc(NC(=O)c2cc(-c3ccccc3OC)on2)cc1,AC50,[2],"15.8 µM [rising, partial curve]"
same,AC50,[3],"7.94 µM [falling, partial curve]"
O=C(Nc1cccnc1)c1cc(-c2cccs2)on1,AC50,[1],"2.51 µM [falling, full curve]"
CC(C)c1ccc(NS(=O)(=O)c2ccc3[nH]cc(C(=O)NC4CCCC4)c(=O)c3c2)cc1,AC50,[1],"25.1 µM [falling, partial curve]"
Cc1ccc(N2CC3=C(C2=O)C(c2ccc(Br)cc2)NC(=O)N3C)cc1 (stereo not drawn),AC50,[1],"25.1 µM [falling, single point]"
Cc1ccccc1CNC(=O)c1ccc(NC(=O)c2nsc3ccccc23)cc1,AC50,[1],"0.2 µM [falling, full curve]"
CC(=O)N1CCN(c2ccc(NC(=O)c3ccccc3Br)cc2Cl)CC1,AC50,[1],"20 µM [falling, partial curve]"
CCn1c(=O)cc(SCC(=O)Nc2ccc(C)c(F)c2)c2ccccc21,AC50,[1],"15.8 µM [falling, partial curve]"
COc1cccc2sc(Nc3nc(-c4ccccn4)cs3)nc12,AC50,[2],"0.794 µM [rising, partial curve]"
same,AC50,[3],"7.94 µM [falling, full curve]"
Cc1ccc(-c2nc(C(=O)NCc3ccc(Cl)cc3)c3n2CCCCC3)cc1,AC50,[1],"39.8 µM [falling, single point]"
Cc1nc2ccccc2c(=O)n1NC(=O)c1c(O)c2c(n(CC(C)C)c1=O)CCCC2,AC50,[1],"12.6 µM [falling, partial curve]"
CC(=O)C1=C(OC(=O)C(C)C)c2ccccc2S(=O)(=O)N1Cc1ccccc1,AC50,[1],"39.8 µM [falling, single point]"
Cc1c(NC(=O)c2ccc3c(c2)OCO3)cccc1-c1nc2ccccc2o1,AC50,[2],"2 µM [falling, full curve, poor fit]"
same,AC50,[3],"2 µM [falling, partial curve]"
O=C(COC(=O)c1cnccn1)Nc1ccc(Cl)cc1,AC50,[1],"10 µM [falling, partial curve]"
O=C1c2ccccc2C(=O)N1CCc1nc2ccccc2c(=O)n1Cc1ccco1,AC50,[1],"12.6 µM [falling, partial curve]"
CCN(C(=O)CSc1nc2ccccc2n1CC(=O)Nc1cccc(C#N)c1)c1ccccc1,AC50,[1],"25.1 µM [falling, single point]"
Cc1cc(NC(=O)CN2C(=O)C(C)(C)c3ccccc32)ccc1Br,AC50,[1],"25.1 µM [falling, partial curve, poor fit]"
COc1ccc(C(CC(=O)Nc2ccc(F)c(Cl)c2)N2Cc3ccccc3C2=O)cc1OC (stereo not drawn),AC50,[1],"31.6 µM [falling, single point]"
Cc1ccc(S(=O)(=O)Cc2ccc(C(=O)N3CCN(c4cccc(C)c4C)CC3)o2)cc1,AC50,[1],"39.8 µM [falling, single point]"

# An excerpt of these results, with tabs:
smiles	measurement	setting	value
CCOc1ccc(S(=O)(=O)Nc2cccc(Cl)c2)cc1	AC50	[1]	12.6 µM [falling, partial curve]
Cc1ccc2c(c1)c(=O)c1ccccc1n2CCCC(=O)Nc1ccc(Cl)cc1C	AC50	[1]	7.94 µM [falling, partial curve]
Oc1ccc2ccccc2c1C=NCc1cn2ccsc2n1	AC50	[1]	31.6 µM [rising, partial curve] [measured here: IkB-luc green channel]
C[C@@H]1O[C@H](O[C@@H]2[C@H](C)O[C@H](O[C@@H]3[C@H](C)O[C@H](O[C@H]4CC[C@]5(C)[C@@H](CC[C@@H]6[C@H]5C[C@@H](O)[C@]5(C)[C@@H](C7=CC(=O)OC7)CC[C@]65O)C4)C[C@@H]3O)C[C@@H]2O)C[C@H](O)[C@@H]1O	AC50	[1]	0.794 µM [falling, full curve]
Cc1oc(-c2ccccc2F)nc1CSCC(=O)NCc1ccc2c(c1)OCO2	AC50	[1]	15.8 µM [falling, partial curve]
